Assay in all cases: affinity purification with mass spectrometry; Arabidopsis root microsomes of YFP-Rab lines; extraction with 100 uM GTP-gamma-S; cross-linked with 1 mM DTSSP; solubilised in 2% CHAPS; anti-GFP uMACS magnetic microbeads; LC-MS/MS, three replicates per genotype
For assay [1], the target named is T1, YFP-RABA2a (Arabidopsis thaliana) (UniProt O04486).
T1 sequence: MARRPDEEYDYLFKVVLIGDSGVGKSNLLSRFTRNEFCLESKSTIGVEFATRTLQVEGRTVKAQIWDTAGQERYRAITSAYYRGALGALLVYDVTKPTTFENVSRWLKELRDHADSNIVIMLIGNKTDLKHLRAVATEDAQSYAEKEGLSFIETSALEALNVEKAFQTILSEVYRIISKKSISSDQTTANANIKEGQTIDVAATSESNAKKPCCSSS

Chains of the proteins cited; added tags and fusions are not shown.
UniProt Q9LS94: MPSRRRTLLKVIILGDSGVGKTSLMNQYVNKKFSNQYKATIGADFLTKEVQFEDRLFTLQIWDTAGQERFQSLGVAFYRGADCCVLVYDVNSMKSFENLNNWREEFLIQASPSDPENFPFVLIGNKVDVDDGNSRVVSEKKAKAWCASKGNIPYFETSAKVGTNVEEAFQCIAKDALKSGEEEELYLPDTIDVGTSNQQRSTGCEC

Assay [2] deals with T2, YFP-RABA5c (Arabidopsis thaliana) (UniProt P28187).
T2 sequence: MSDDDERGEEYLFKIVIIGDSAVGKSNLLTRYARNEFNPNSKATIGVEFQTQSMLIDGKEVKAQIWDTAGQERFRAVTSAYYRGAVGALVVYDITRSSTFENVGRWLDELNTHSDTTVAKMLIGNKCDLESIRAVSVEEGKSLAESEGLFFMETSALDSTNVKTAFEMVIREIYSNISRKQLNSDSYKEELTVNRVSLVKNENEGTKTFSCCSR

The target in assay [3] is YFP-RABG3f (Arabidopsis thaliana) (UniProt Q9LS94).

No constants are given. Whether binding was seen depends on the method and setting. Binding seen in cells or lysates may run through a third protein. A yes stands for co-enrichment or nearness to the bait. Other partners may have been found. For part of these data: A no says only that the protein was not detected with the bait. For part of these data: Tags and fused reporters may be left off the sequences shown.

B1: NET4B, endogenous in Arabidopsis roots (protein, UniProt Q84VY2 1-517)
chain: MASSTAQSKKQFKRSMTKKSHSWWWDSHNCPKNSKWLAENLEKMDDRVNHMLKLIEEDADSFAKKAQMYFQKRPELIQLVEEFYRMYRALAERYDQASGELQKNHTSEIQSQSSLEISSPTKEKLSRRQSSHKEEEDSSSLTDSGSDSDHSSANDEDGDEALIRRMAELELELQETKQKLLLQQESVDGDNNVDLLHKITTYEGELKEANEKMRMHEDEIANLKNQLQSFMSFDTEDHLGAEQKSVDLDKEDTKEDAVATKVLALEEELSIAKEKLQHFEKETYSLKNELEIGKAAEEKLKSLQHELELAQRDADTYINKLNAEKKEVLKLQERLAMVKTSLQDRDNEIRALKTAVSDAEQKIFPEKAQIKGEMSKMLEERSQLGEQLRELESHIRLIKEEKAETEEKLRGGTEKISGMRDESNVLREEIGKREEKIKETEKHMEELHMEQVRLRRRSSELTEEVERTRVSASEMAEQKREAIRQLCMSLDHYRDGYDRLWRVVAGHKSKRVVVLST
Consider B1, for which the binding entry in assay [1] is listed as “no binding”; in assay [2] it was “no binding”; in assay [3], “binds”.
